PubChem BioAssay AID1508597 – Cure First – 2020
In all, the deposit lists about 2,100 reagents; shown is an unselected part. 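Calls flag viability under 80% in either arm, not effects specific to rucaparib; the reference for percent is not stated.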 No sequences are given here. The record does not give: the 100% reference.

Aim: 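Knock-downs altering ovarian cancer cell survival with or without PARP inhibitor rucaparib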 (primary screen)
Cell system: human ovarian carcinoma lines grown from tumours: OCI-P5x (papillary serous) and OCI-C5x (clear cell)
Reagent: siRNA pool against human genes, 1.25 pmol siRNA per well
Timing: 72 h or 96 h, depending on the cell culture
Conditions: rucaparib 20 µM (about IC30) or vehicle, present until read-out
Read-out: 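ATP luminescence measured at 72 or 96 h according to the culture, then normalised and expressed as percent viability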
Direction: viability, normalised: higher = more viable cells remaining
Hit rule: 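Active when normalised viability falls below 80 percent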
Calls: active = viability under 80%; inactive = viability 80% or more

PSIP1 [SID405527209], rucaparib or vehicle Rucaparib, cell line OCI-C5x (clear cell), technical replicate 1
- viability, normalised (%): 30.2
- activity call: active

PSIP1 [SID405527209], rucaparib or vehicle Rucaparib, cell line OCI-C5x (clear cell), technical replicate 2
- viability, normalised (%): 32.3
- activity call: active

PSIP1 [SID405527209], rucaparib or vehicle Rucaparib, cell line OCI-C5x (clear cell), technical replicate 3
- viability, normalised (%): 31.9
- activity call: active

PSIP1 [SID405527209], rucaparib or vehicle Rucaparib, cell line OCI-P5x (serous), technical replicate 1
- viability, normalised (%): 51.7
- activity call: active

PSIP1 [SID405527209], rucaparib or vehicle Rucaparib, cell line OCI-P5x (serous), technical replicate 2
- viability, normalised (%): 41.1
- activity call: active

PSIP1 [SID405527209], rucaparib or vehicle Rucaparib, cell line OCI-P5x (serous), technical replicate 3
- viability, normalised (%): 53.3
- activity call: active

PSIP1 [SID405527209], rucaparib or vehicle Vehicle, cell line OCI-C5x (clear cell), technical replicate 1
- viability, normalised (%): 45
- activity call: active

PSIP1 [SID405527209], rucaparib or vehicle Vehicle, cell line OCI-C5x (clear cell), technical replicate 2
- viability, normalised (%): 29.9
- activity call: active

PSIP1 [SID405527209], rucaparib or vehicle Vehicle, cell line OCI-C5x (clear cell), technical replicate 3
- viability, normalised (%): 48.6
- activity call: active

PSIP1 [SID405527209], rucaparib or vehicle Vehicle, cell line OCI-P5x (serous), technical replicate 1
- viability, normalised (%): 66.4
- activity call: active

PSIP1 [SID405527209], rucaparib or vehicle Vehicle, cell line OCI-P5x (serous), technical replicate 2
- viability, normalised (%): 51.1
- activity call: active

PSIP1 [SID405527209], rucaparib or vehicle Vehicle, cell line OCI-P5x (serous), technical replicate 3
- viability, normalised (%): 87.6
- activity call: inactive

MED19 [SID405526994], rucaparib or vehicle Rucaparib, cell line OCI-C5x (clear cell), technical replicate 1
- viability, normalised (%): 19.3
- activity call: active

MED19 [SID405526994], rucaparib or vehicle Rucaparib, cell line OCI-C5x (clear cell), technical replicate 2
- viability, normalised (%): 28.7
- activity call: active

MED19 [SID405526994], rucaparib or vehicle Rucaparib, cell line OCI-C5x (clear cell), technical replicate 3
- viability, normalised (%): 32
- activity call: active

MED19 [SID405526994], rucaparib or vehicle Rucaparib, cell line OCI-P5x (serous), technical replicate 1
- viability, normalised (%): 53.6
- activity call: active

MED19 [SID405526994], rucaparib or vehicle Rucaparib, cell line OCI-P5x (serous), technical replicate 2
- viability, normalised (%): 57
- activity call: active

MED19 [SID405526994], rucaparib or vehicle Rucaparib, cell line OCI-P5x (serous), technical replicate 3
- viability, normalised (%): 51.2
- activity call: active

MED19 [SID405526994], rucaparib or vehicle Vehicle, cell line OCI-C5x (clear cell), technical replicate 1
- viability, normalised (%): 32
- activity call: active

MED19 [SID405526994], rucaparib or vehicle Vehicle, cell line OCI-C5x (clear cell), technical replicate 2
- viability, normalised (%): 24.3
- activity call: active

MED19 [SID405526994], rucaparib or vehicle Vehicle, cell line OCI-C5x (clear cell), technical replicate 3
- viability, normalised (%): 45.7
- activity call: active

MED19 [SID405526994], rucaparib or vehicle Vehicle, cell line OCI-P5x (serous), technical replicate 1
- viability, normalised (%): 59.1
- activity call: active

MED19 [SID405526994], rucaparib or vehicle Vehicle, cell line OCI-P5x (serous), technical replicate 2
- viability, normalised (%): 58.5
- activity call: active

MED19 [SID405526994], rucaparib or vehicle Vehicle, cell line OCI-P5x (serous), technical replicate 3
- viability, normalised (%): 63
- activity call: active

EPHB4 [SID405527533], rucaparib or vehicle Rucaparib, cell line OCI-C5x (clear cell), technical replicate 1
- viability, normalised (%): 80
- activity call: inactive

EPHB4 [SID405527533], rucaparib or vehicle Rucaparib, cell line OCI-C5x (clear cell), technical replicate 2
- viability, normalised (%): 70.5
- activity call: active

EPHB4 [SID405527533], rucaparib or vehicle Rucaparib, cell line OCI-C5x (clear cell), technical replicate 3
- viability, normalised (%): 70.7
- activity call: active

EPHB4 [SID405527533], rucaparib or vehicle Rucaparib, cell line OCI-P5x (serous), technical replicate 1
- viability, normalised (%): 99.4
- activity call: inactive

EPHB4 [SID405527533], rucaparib or vehicle Rucaparib, cell line OCI-P5x (serous), technical replicate 2
- viability, normalised (%): 81
- activity call: inactive

EPHB4 [SID405527533], rucaparib or vehicle Rucaparib, cell line OCI-P5x (serous), technical replicate 3
- viability, normalised (%): 80.8
- activity call: inactive

EPHB4 [SID405527533], rucaparib or vehicle Vehicle, cell line OCI-C5x (clear cell), technical replicate 1
- viability, normalised (%): 72.9
- activity call: active

EPHB4 [SID405527533], rucaparib or vehicle Vehicle, cell line OCI-C5x (clear cell), technical replicate 2
- viability, normalised (%): 66.6
- activity call: active

EPHB4 [SID405527533], rucaparib or vehicle Vehicle, cell line OCI-C5x (clear cell), technical replicate 3
- viability, normalised (%): 59.7
- activity call: active

EPHB4 [SID405527533], rucaparib or vehicle Vehicle, cell line OCI-P5x (serous), technical replicate 1
- viability, normalised (%): 67.8
- activity call: active

EPHB4 [SID405527533], rucaparib or vehicle Vehicle, cell line OCI-P5x (serous), technical replicate 2
- viability, normalised (%): 79.5
- activity call: active

EPHB4 [SID405527533], rucaparib or vehicle Vehicle, cell line OCI-P5x (serous), technical replicate 3
- viability, normalised (%): 85.1
- activity call: inactive

4 consecutive entries already listed, quoted:
MED19 [SID405526994], rucaparib or vehicle Rucaparib, cell line OCI-P5x (serous), technical replicate 2
- viability, normalised (%): 57
- activity call: active

MED19 [SID405526994], rucaparib or vehicle Rucaparib, cell line OCI-P5x (serous), technical replicate 3
- viability, normalised (%): 51.2
- activity call: active

MED19 [SID405526994], rucaparib or vehicle Vehicle, cell line OCI-C5x (clear cell), technical replicate 1
- viability, normalised (%): 32
- activity call: active

MED19 [SID405526994], rucaparib or vehicle Vehicle, cell line OCI-C5x (clear cell), technical replicate 2
- viability, normalised (%): 24.3
- activity call: active
